According to patent publication US9322042B2, “Thermostable cellulases, and mutants thereof, capable of hydrolyzing cellulose in ionic liquid” (The Regents of the University of California, priority 2009, dated 2016):

B1: Pho EG: cellulase of Pyrococcus horikoshii strain OT3 (Accession No. NP_143072); SEQ ID NO: 21 (protein, listed as Pyrococcus horikoshii)
chain: MEGNTILKIVLICTILAGLFGQVVPVYAENTTYQTPTGIYYEVRGDTIYMINVTSGEETPIHLFGVNWFGFETPNHVVHGLWKRNWEDMLLQIKSLGFNAIRLPFCTESVKPGTQPIGIDYSKNPDLRGLDSLQIMEKIIKKAGDLGIFVLLDYHRIGCTHIEPLWYTEDFSEEDFINTWIEVAKRFGKYWNVIGADLKNEPHSVTSPPAAYTDGTGATWGMGNPATDWNLAAERIGKAILKVAPHWLIFVEGTQFTNPKTDSSYKWGYNAWWGGNLMAVKDYPVNLPRNKLVYSPHVYGPDVYNQPYFGPAKGFPDNLPDIWYHHFGYVKLELGYSVVIGEFGGKYGHGGDPRDVIWQNKLVDWMIENKFCDFFYWSWNPDSGDTGGILQDDWTTIWEDKYNNLKRLMDSCSKSSSSTQSVIRSTTPTKSNTSKKICGPAILIILAVFSLLLRRAPR
B2: Tma Cel5A: wild-type cellulase of Thermatoga maritima strain MSB8 (Accession No. NP_229549); SEQ ID NO: 20 (protein, listed as Thermotoga maritima)
chain: MGVDPFERNKILGRGINIGNALEAPNEGDWGVVIKDEFFDIIKEAGFSHVRIPIRWSTHAYAFPPYKIMDRFFKRVDEVINGALKRGLAVVINIHHYEELMNDPEEHKERFLALWKQIADRYKDYPETLFFEILNEPHGNLTPEKWNELLEEALKVIRSIDKKHTIIIGTAEWGGISALEKLSVPKWEKNSIVTIHYYNPFEFTHQGAEWVEGSEKWLGRKWGSPDDQKHLIEEFNFIEEWSKKNKRPIYIGEFGAYRKADLESRIKWTSFVVREMEKRRWSWAYWEFCSGFGVYDTLRKTWNKDLLEALIGGDSIE

Experiment: Hydrolysis of insoluble substrates, statements over all substrates
Assay type: biochemical

Row | Molecule | major hydrolysis product
1 | B1 | Cellobiose
2 | B2 | a mixture of sugars
